No constants are given. Whether binding was seen depends on the method and setting. In cells and extracts the contact can be indirect. Here binding means that the protein was enriched with, or labelled near, the bait; the list need not be complete. For part of these data: No binding means not detected with the bait.
Tests used:
Experiment in all cases: affinity purification with mass spectrometry
[1] = target: GFP-tagged c20orf27 (wild type) (UniProt Q9GZN8)
[2] = target: hPP1β-GFP (pEGFP expression plasmid, stable cell lines) (human) (UniProt P62140)
[3] = target: GFP-tagged PP1ɣ (HeLa/BAC cell line hPPP1CC-LAP) (human) (UniProt P36873)
[4] = target: GFP-tagged PP1β (HeLa/BAC cell line mPPP1CB-LAP) (mouse) (UniProt P62141)
[5] = target: GFP-hPP1γ (pEGFP expression plasmid, stable cell lines) (human) (UniProt P36873)

Chains of the proteins cited; added tags and fusions are not shown.
UniProt P62140: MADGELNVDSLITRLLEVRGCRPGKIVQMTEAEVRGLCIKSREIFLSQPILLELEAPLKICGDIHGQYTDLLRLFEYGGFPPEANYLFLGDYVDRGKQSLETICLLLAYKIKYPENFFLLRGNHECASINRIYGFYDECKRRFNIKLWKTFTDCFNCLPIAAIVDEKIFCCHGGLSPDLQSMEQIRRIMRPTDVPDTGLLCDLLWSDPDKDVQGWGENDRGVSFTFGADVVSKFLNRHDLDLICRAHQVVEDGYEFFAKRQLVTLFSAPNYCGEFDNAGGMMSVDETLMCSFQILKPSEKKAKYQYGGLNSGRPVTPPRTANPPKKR
UniProt P36873: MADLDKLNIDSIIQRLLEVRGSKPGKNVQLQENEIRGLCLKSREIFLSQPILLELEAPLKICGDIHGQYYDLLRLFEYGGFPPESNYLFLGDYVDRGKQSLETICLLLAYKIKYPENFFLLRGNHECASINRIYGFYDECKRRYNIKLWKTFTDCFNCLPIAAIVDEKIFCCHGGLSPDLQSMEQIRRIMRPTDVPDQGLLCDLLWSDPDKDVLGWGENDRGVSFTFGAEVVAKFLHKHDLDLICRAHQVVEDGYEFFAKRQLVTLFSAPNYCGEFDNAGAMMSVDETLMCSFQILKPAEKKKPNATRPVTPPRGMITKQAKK
UniProt P62141: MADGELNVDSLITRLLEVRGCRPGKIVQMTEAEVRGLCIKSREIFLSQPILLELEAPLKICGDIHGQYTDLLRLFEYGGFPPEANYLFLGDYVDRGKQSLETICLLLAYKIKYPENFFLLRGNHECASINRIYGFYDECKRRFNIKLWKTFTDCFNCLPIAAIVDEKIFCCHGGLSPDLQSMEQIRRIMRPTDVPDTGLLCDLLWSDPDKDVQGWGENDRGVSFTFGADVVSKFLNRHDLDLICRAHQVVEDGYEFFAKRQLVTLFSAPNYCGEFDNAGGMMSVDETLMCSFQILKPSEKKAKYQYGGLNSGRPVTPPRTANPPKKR
UniProt Q92624: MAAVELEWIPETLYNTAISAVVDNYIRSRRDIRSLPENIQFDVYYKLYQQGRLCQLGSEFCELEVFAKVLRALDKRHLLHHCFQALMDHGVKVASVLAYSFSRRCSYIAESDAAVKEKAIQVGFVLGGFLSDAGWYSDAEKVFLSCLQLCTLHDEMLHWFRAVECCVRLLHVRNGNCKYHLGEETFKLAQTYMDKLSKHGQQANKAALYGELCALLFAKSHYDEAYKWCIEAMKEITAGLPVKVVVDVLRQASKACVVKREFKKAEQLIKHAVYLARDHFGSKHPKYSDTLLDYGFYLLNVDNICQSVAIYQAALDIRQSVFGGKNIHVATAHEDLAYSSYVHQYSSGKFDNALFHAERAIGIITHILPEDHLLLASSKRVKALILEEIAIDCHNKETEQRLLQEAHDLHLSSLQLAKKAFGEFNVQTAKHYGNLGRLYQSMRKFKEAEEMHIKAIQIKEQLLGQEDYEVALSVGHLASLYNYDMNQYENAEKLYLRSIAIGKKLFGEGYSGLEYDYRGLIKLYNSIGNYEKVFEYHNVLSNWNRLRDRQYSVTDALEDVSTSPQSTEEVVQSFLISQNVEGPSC
UniProt Q9BZL4: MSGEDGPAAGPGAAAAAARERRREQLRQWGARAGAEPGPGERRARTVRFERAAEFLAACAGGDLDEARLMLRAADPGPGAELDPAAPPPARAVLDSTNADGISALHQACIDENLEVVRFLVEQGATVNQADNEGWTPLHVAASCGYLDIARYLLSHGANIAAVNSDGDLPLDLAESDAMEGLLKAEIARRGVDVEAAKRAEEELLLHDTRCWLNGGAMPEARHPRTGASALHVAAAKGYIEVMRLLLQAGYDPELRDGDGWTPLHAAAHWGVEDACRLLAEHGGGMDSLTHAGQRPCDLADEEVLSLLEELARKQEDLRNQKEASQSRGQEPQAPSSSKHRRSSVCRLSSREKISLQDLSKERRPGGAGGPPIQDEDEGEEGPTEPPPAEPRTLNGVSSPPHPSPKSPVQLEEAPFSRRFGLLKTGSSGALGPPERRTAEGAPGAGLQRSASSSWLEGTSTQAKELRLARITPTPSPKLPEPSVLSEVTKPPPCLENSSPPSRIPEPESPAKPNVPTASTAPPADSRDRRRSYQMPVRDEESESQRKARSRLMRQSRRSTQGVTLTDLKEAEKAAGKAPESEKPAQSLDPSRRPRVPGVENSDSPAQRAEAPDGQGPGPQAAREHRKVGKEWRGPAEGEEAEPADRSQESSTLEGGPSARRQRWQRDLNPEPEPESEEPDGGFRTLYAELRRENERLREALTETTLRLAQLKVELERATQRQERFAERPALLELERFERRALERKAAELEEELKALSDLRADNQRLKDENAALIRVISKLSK
UniProt P46013: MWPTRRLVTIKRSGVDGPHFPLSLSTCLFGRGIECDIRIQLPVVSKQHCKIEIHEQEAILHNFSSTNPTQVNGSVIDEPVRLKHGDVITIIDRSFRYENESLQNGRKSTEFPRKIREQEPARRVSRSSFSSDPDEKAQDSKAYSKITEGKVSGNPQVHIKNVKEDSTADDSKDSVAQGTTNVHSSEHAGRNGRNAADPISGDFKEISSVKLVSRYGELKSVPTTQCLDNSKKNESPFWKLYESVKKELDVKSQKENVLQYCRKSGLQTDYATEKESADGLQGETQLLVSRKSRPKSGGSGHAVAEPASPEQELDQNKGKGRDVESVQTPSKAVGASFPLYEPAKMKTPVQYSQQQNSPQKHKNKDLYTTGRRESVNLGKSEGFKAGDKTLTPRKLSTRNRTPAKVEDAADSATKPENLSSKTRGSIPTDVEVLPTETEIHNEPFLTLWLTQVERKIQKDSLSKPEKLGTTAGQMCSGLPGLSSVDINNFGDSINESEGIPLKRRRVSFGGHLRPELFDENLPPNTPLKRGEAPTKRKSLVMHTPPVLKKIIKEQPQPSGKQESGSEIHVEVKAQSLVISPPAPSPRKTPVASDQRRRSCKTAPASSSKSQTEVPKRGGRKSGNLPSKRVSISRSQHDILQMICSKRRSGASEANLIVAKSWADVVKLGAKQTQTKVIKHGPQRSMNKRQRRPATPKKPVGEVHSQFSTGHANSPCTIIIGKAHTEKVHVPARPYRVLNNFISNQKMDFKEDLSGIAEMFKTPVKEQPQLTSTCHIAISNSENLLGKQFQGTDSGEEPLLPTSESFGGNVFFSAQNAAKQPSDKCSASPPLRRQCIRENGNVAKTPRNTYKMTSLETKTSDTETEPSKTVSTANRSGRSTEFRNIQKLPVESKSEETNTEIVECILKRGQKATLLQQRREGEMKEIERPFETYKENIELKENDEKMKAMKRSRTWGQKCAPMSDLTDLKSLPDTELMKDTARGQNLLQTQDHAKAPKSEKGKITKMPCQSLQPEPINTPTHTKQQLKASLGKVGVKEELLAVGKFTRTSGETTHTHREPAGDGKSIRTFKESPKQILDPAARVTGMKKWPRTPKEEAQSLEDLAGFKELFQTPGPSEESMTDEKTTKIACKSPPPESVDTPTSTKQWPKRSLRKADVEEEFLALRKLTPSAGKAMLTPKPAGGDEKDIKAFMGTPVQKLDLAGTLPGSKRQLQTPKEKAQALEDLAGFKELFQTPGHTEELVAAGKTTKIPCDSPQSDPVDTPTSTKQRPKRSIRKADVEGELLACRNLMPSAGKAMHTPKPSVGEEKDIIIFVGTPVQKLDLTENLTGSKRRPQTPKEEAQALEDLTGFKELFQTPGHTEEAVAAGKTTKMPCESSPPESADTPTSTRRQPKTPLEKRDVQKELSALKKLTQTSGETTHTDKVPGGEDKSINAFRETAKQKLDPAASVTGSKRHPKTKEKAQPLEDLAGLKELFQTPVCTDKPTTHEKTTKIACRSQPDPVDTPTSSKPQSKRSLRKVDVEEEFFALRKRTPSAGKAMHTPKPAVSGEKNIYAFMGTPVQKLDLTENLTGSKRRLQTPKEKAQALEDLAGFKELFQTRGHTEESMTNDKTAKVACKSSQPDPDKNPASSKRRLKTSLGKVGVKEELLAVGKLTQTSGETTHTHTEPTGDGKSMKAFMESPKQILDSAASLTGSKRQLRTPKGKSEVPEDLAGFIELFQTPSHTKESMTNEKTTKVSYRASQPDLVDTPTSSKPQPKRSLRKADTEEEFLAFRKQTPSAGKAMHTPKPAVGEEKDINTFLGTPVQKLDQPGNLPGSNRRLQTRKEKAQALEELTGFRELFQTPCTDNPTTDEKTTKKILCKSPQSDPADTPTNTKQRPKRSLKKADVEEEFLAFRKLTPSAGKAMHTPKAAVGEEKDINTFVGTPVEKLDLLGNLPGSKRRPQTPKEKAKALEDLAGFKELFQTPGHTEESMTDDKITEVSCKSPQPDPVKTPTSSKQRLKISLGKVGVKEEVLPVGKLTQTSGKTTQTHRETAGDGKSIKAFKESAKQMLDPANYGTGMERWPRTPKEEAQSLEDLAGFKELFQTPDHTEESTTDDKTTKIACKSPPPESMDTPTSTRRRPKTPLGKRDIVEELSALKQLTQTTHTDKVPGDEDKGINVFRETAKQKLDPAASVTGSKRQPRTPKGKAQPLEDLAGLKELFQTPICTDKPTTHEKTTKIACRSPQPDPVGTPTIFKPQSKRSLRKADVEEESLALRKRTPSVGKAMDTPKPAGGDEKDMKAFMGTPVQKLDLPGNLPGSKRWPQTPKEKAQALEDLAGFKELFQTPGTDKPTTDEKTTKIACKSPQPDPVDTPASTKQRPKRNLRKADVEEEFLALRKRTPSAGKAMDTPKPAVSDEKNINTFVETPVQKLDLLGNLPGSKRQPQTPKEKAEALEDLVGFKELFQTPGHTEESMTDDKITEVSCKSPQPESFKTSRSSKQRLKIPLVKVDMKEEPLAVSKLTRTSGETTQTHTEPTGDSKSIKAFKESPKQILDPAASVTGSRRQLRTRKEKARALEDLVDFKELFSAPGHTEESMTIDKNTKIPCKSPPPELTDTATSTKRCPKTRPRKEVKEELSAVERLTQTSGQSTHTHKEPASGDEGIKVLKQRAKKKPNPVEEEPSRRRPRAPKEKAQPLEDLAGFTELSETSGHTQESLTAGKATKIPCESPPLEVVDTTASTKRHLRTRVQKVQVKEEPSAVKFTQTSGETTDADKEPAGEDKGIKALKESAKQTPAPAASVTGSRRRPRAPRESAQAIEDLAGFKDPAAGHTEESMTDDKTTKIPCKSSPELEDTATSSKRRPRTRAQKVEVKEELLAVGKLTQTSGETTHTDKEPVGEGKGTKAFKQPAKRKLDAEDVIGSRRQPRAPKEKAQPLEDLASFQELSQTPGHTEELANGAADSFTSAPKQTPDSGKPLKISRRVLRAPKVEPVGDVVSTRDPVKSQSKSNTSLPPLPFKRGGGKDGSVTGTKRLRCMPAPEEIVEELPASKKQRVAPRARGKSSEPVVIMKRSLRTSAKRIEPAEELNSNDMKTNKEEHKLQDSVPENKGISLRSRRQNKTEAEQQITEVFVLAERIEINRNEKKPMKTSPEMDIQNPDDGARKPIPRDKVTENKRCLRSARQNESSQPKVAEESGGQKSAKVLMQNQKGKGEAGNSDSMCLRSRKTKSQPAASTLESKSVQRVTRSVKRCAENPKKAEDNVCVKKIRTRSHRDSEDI
UniProt Q12972: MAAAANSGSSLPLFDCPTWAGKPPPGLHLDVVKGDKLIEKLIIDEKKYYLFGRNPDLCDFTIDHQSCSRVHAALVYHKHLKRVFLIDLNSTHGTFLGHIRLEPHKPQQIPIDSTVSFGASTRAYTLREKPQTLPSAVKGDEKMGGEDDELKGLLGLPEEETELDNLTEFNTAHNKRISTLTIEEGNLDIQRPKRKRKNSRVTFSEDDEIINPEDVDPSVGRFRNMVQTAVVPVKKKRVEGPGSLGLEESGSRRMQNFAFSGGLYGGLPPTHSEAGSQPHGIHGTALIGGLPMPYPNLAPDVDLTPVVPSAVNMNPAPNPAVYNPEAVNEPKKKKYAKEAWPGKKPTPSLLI
UniProt O75901: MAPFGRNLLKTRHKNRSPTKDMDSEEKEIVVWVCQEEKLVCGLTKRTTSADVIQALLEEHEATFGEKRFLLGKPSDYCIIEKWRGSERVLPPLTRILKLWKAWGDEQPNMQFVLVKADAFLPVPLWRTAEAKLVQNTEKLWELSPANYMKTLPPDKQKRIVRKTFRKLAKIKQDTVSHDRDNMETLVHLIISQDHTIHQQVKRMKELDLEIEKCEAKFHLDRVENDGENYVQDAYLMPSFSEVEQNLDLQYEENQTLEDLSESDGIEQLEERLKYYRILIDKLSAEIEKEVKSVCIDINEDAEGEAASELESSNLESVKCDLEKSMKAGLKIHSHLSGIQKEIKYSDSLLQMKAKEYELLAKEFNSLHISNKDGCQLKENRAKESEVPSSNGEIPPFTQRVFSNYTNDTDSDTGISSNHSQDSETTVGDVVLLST

| binding [2] | binding [5] | Substance | further results |
| --- | --- | --- | --- |
|  |  | APPBP2 (amyloid beta precursor protein binding protein 2) (from UniProt Q92624 1-585) | binding [1]: binds |
| binds |  | LENG3 (from UniProt Q9BZL4 1-782) |  |
|  |  | LMTK2 (from UniProt Q8IWU2 1-1503) | binding [3]: binds; binding [4]: no binding |
| binds |  | MKI67 (from UniProt P46013 1-3256) |  |
| binds | no binding | MYPT3 (from UniProt Q96I34 1-528) |  |
| binds | binds | NIPP1 (from UniProt Q12972 1-351) |  |
| no binding | no binding | RASSF9 (endogenous) (from UniProt O75901 1-435) |  |
|  | binds | RIF1 (from UniProt Q5UIP0 1-2472) |  |
|  | binds | Spinophilin (from UniProt Q96SB3 1-817) |  |
| no binding |  | TPRN (Taperin) (from UniProt Q4KMQ1 1-711) |  |
|  |  | UBR2 (Recognin) (from UniProt Q8IWV8 1-1755) | binding [1]: binds |

— paper doi:10.1101/2022.09.09.507380
